Literature values, collected in US6683230B1, “Hybrid seed production” (Syngenta Limited, priority 1998, dated 2004).
At least one structure is not confirmed: it was looked up by name or label, or the drawing left a doubt.

System: tetracycline repressor protein
Details: in vivo; cited from earlier work

CN(C)[C@@H]1C(O)=C(C(N)=O)C(=O)[C@@]2(O)C(O)=C3C(=O)c4c(O)cccc4[C@@](C)(O)[C@H]3C[C@@H]12 [tetracycline]
expression from modified 35S CaMV promoter repressed by tetracycline repressor: restored
